Laboratory results: PubChem BioAssay AID1671195 (Yale University, 2021)
The deposit covers about 22,000 reagents; below is a random part of them. Of all reagents, about 1,510 (6.9%) got an active call. 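Active includes knockdowns raising or lowering LDL uptake; positive z-scores mean more uptake, negative mean less.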

- Purpose: 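Genes whose knockdown alters LDL uptake in liver cancer cells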 (primary screen)
- System: human Huh7 hepatoma cells
- Reagents: siRNA pool against human genes, 18 nM
- Time to read-out: about 2 to 2.5 days of knockdown, then 8 h LDL uptake
- Conditions: DiI-labelled LDL at 30 µg/ml for 8 h, in lipoprotein-deficient serum medium
- Measured: 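Per-cell DiI-LDL intensity by automated imaging; well means scaled to the plate median and given as a robust z-score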
- Scale: robust z-score: higher = more LDL uptake after knockdown
- Active means: 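a gene counts as active if at least two replicate z-scores exceed ±2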

gene knocked down | robust z-score, replicate 1 | robust z-score, replicate 2 | robust z-score, replicate 3 | Call
C2CD2 | -0.377 | -1.82 | -1.03 | inactive
BTNL8 | 1.75 | 1.32 | 1.67 | inactive
NAA10 | -0.682 | -1.18 | -0.852 | inactive
STK32B | 0.746 | -0.421 | 1.07 | inactive
CLCNKA | -0.511 | -0.876 | 0.322 | inactive
GATA6 | -1.37 | -1.42 | -1.46 | inactive
PEX11B | -0.716 | -0.421 | -1.87 | inactive
HDHD5 | -1.13 | -2.91 | -0.717 | inactive
IL5RA | -0.0558 | 0.651 | 0.249 | inactive
STX1B | -0.556 | -0.35 | 0.0529 | inactive
MVK | -0.108 | -0.655 | -0.611 | inactive
CANX | -0.152 | 0.0387 | -0.0678 | inactive
AFF3 | -0.2 | 0.00893 | -0.0419 | inactive
AKAP12 | -0.0979 | -0.547 | -1.02 | inactive
PRPSAP1 | -0.474 | -0.123 | 0.106 | inactive
SPRR1A | -2.19 | -1.09 | -1.57 | inactive
RPS16 | -0.863 | -0.00621 | 0.274 | inactive
SRGAP2B | -0.0421 | 0.134 | -0.0358 | inactive
LARP4 | 0.471 | 0.461 | 0.276 | inactive
GOLGA8A | -0.479 | 2.28 | -1.17 | inactive
SSR3 | 0.486 | 1.44 | 0.851 | inactive
PLPP1 | -0.00981 | -0.112 | 0.155 | inactive
ADGRF3 | 1.38 | -0.048 | 1.57 | inactive
CARM1LP | 1.2 | 0.225 | 0.474 | inactive
FBXO7 | 1.41 | -0.789 | 1.71 | inactive
LOC392173 (retired record) | 1.24 | 1.29 | 1.39 | inactive
FOXJ1 | -2.23 | -2.33 | -2.23 | active
PDCL2 | 1.65 | 0.876 | 0.795 | inactive
ELOVL4 | 2.58 | 1.41 | 2.39 | active
MC2R | -0.0954 | 0.797 | 0.068 | inactive
GPX6 | -1.42 | -1.23 | -1.5 | inactive
EPS8L1 | 0.852 | 0.707 | -0.486 | inactive
TMEM163 | -0.195 | -0.744 | -0.35 | inactive
STGC3 (retired record) | 1.05 | 1.21 | 1.52 | inactive
CEP57 | 0.563 | -0.33 | -0.908 | inactive
CEP170B | 0.335 | -0.158 | -0.132 | inactive
PRKRA | 1.47 | 1.17 | 1.01 | inactive
KDM4C | 7.51 | 6.82 | 7.67 | active

Taken from above:
Under “robust z-score, replicate 3”, FOXJ1 shows -2.23
Result for AFF3 under “robust z-score, replicate 3”: -0.0419
HDHD5, robust z-score, replicate 2 → -2.91
For “robust z-score, replicate 1”, CEP57 is entered as 0.563
For “robust z-score, replicate 1”, STX1B is entered as -0.556
Under “robust z-score, replicate 3”, PDCL2 is entered as 0.795

Further reagents follow.
gene knocked down | robust z-score, replicate 1 | robust z-score, replicate 2 | robust z-score, replicate 3 | Call
CAPN5 | -0.745 | -1.17 | -1.11 | inactive
GSTO1 | -0.412 | 0.246 | -0.452 | inactive
IZUMO1 | -0.585 | -0.348 | -0.0678 | inactive
CCNP | 0.475 | -0.0981 | 0.352 | inactive
LENG8 | 1.75 | -0.852 | 0.413 | inactive
NDE1 | 0.661 | 0.417 | 1.38 | inactive
ZNF850-DT | 2.37 | 2.46 | 2.29 | active
PDE8A | -1.3 | -1.04 | -1.17 | inactive
ZNF138 | 0.659 | -0.0265 | 0.232 | inactive
ADAMTS20 | 1.82 | 1.86 | 1.54 | inactive
STOML3 | -0.232 | -0.731 | -0.611 | inactive
CLDN1 | 0.605 | 0.506 | 0.191 | inactive
ARNT2 | -0.105 | -0.0555 | -0.0512 | inactive
SERPINA5 | 2.07 | 1.14 | 2.36 | active
CD53 | -0.969 | -0.365 | -1.1 | inactive
FSTL1 | 0.149 | -0.471 | -0.58 | inactive
SP1 | -0.877 | -0.571 | -0.871 | inactive
POMC | -1.37 | 1.33 | -1.36 | inactive
AKR1A1 | 0.232 | 0.55 | 0.141 | inactive
LOC391692 (retired record) | 0.12 | -0.19 | -0.17 | inactive
LAPTM4B | 2.18 | -0.412 | 1.4 | inactive
SLC19A1 | -0.787 | -0.997 | -0.842 | inactive
ARF4 | -1.23 | 1.07 | -0.0614 | inactive
USP6NL-AS1 | -0.111 | -0.134 | -0.471 | inactive
MVP | -0.298 | -0.63 | -1.5 | inactive
SLC68A1 | 0.808 | 0.863 | 1.36 | inactive
ABCA3 | -1.5 | -1.07 | -1.24 | inactive
FAM107A | -0.633 | -0.646 | -0.886 | inactive
OR6C76 | -0.424 | -0.0132 | -0.894 | inactive
DUT | 0.422 | 0.169 | 0.342 | inactive
